Results: PubChem BioAssay AID2519 (Broad Institute, 2010)
Some of the results follow. Entries with a potency or affinity are not part of this list. Entries without a call are filed as inconclusive in the source.

Test: Confirmatory concentration-response of platelet secretion blockers, SFLLRN-triggered plasma, 384-well luminescence (AID 2519)
Conditions: human platelet-rich plasma, SFLLRN dense granule ATP luminescence; at 16 µM (top of the series)

With `CC(=O)Nc1ccc(/C=N/NC(=O)CC2CCCCC2)cc1` the activity change, negative = inhibition was 17.5%.
